Paper doi:10.1101/395996
These are yes or no findings as the source states them, for the method shown. Binding seen in cells or lysates may run through a third protein. These calls come from enrichment with a bait or labelling near it, and not all partners need be listed.

Chains of the proteins cited; added tags and fusions are not shown.
UniProt O43707: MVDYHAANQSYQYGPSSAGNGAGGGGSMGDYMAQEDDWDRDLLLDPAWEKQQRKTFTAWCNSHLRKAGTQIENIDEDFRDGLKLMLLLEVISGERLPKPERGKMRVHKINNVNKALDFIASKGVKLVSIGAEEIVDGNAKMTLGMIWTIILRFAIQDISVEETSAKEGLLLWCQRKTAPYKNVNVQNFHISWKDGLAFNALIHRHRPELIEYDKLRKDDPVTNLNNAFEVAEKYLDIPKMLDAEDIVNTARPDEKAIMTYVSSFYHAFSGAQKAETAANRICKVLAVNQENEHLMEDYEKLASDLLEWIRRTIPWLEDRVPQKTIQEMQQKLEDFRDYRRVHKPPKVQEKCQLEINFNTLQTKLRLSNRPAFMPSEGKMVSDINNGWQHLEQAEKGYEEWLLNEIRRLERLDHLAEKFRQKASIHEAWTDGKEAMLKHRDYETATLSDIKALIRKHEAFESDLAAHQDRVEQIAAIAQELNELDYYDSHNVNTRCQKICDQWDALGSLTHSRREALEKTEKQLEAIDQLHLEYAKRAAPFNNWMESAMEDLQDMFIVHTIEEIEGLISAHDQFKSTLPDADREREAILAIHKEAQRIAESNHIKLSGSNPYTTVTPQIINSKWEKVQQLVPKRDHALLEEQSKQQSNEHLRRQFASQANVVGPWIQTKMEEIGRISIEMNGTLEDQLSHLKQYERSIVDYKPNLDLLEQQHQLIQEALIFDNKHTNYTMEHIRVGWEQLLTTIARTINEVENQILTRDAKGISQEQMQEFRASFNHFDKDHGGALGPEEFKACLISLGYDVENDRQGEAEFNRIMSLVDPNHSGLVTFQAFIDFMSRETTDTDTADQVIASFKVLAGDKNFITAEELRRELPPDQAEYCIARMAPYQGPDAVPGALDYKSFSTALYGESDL
UniProt Q03135: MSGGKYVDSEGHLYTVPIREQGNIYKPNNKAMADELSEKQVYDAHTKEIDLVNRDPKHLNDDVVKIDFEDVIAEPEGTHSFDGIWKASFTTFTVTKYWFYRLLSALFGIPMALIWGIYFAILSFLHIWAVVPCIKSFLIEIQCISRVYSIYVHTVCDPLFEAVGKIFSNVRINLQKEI
UniProt Q9UHB6: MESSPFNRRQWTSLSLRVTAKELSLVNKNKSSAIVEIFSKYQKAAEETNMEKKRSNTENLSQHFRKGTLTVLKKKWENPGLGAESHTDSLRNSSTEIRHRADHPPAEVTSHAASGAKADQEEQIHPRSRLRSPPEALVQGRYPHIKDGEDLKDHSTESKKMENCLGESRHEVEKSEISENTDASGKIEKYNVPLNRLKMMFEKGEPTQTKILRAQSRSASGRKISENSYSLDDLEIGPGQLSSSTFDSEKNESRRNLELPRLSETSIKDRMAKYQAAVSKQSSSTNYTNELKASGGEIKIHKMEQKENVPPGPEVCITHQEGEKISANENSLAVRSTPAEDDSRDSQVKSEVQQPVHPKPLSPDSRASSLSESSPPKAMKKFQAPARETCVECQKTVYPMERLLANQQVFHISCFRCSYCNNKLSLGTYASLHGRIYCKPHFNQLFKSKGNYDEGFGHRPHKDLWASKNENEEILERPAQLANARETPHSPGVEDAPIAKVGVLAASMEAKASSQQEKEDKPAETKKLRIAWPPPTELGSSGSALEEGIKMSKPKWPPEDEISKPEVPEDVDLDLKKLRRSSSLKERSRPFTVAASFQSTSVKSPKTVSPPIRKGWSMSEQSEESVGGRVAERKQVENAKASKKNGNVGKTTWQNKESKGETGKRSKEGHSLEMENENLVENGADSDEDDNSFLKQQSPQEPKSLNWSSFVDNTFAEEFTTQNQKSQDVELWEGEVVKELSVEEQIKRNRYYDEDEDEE
UniProt P35580: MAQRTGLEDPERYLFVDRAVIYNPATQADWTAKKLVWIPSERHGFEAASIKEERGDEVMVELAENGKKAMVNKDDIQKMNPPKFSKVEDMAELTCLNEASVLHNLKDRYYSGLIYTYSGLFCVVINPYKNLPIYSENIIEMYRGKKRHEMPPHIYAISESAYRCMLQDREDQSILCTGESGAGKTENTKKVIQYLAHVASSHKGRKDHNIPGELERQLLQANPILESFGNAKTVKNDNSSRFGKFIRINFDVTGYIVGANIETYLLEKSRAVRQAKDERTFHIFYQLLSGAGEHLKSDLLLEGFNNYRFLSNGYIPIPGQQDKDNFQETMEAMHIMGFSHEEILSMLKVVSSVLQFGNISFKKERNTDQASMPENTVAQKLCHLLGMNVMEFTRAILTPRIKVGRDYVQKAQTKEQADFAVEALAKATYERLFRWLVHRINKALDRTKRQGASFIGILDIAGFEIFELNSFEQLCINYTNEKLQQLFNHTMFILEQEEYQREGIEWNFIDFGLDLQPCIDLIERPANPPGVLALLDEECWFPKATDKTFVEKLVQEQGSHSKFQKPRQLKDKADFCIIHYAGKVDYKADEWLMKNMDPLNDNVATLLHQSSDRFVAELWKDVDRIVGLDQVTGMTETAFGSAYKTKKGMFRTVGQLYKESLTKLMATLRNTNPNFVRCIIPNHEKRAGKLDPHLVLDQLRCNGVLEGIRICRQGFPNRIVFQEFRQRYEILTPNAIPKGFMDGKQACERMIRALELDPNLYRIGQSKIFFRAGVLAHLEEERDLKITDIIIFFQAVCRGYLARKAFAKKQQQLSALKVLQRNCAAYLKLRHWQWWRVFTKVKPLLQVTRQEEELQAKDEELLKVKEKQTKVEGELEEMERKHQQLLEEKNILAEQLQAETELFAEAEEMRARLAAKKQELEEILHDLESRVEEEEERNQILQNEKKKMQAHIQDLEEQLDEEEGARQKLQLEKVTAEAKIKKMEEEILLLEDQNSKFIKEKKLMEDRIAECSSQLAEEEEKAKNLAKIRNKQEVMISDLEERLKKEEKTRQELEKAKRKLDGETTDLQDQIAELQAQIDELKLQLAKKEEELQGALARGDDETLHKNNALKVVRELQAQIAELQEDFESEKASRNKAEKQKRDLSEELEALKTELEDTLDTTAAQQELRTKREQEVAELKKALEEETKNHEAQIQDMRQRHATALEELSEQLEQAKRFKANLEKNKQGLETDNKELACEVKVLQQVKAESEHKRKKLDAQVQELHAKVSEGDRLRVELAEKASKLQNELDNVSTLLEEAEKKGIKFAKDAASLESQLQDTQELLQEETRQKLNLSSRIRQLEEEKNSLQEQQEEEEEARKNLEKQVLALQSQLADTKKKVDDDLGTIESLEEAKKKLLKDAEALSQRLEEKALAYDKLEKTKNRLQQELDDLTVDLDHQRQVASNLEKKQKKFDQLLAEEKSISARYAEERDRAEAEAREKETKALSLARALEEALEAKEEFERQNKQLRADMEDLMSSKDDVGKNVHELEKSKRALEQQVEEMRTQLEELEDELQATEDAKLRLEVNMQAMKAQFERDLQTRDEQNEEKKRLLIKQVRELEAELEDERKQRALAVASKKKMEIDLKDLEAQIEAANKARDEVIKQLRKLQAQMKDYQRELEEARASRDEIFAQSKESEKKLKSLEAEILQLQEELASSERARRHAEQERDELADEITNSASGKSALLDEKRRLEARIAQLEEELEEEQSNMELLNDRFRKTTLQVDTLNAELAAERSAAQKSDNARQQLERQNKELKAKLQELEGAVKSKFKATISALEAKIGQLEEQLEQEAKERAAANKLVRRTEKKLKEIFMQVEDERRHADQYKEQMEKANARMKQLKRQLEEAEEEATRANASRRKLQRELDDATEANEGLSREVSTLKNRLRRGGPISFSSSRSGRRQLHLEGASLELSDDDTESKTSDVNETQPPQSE
UniProt O43795: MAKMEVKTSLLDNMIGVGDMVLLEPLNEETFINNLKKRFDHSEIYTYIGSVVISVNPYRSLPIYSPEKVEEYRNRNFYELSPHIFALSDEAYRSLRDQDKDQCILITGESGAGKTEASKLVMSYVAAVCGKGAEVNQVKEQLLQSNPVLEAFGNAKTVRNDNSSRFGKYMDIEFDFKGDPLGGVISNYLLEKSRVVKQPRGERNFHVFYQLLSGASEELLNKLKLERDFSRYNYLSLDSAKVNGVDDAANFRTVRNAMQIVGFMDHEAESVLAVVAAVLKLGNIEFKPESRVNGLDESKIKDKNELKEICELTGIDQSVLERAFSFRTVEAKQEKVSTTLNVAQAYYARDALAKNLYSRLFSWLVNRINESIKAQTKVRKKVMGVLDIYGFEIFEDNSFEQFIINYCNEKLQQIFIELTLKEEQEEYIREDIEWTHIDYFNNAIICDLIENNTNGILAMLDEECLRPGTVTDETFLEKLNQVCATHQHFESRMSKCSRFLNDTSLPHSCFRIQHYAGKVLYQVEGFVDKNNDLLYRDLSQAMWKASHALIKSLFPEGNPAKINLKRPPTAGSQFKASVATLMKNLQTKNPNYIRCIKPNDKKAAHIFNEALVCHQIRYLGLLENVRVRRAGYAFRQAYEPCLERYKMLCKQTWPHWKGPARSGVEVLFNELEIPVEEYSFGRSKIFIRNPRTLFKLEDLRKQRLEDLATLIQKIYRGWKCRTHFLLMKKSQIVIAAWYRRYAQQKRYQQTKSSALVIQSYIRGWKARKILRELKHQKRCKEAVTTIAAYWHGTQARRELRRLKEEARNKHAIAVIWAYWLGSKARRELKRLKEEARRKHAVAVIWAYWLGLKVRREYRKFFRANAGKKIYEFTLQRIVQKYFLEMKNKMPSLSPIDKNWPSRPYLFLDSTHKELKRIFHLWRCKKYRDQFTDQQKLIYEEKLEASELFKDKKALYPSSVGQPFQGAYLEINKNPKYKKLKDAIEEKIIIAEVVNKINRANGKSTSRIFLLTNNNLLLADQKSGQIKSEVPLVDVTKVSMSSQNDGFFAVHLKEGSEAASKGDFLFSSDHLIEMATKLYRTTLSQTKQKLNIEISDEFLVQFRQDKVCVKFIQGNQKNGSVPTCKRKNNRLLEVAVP
UniProt O00161: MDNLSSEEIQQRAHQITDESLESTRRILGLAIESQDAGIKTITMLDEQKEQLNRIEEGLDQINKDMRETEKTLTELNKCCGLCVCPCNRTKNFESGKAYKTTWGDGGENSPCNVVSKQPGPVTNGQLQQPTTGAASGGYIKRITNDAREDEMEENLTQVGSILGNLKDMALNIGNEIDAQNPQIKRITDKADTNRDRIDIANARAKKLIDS
UniProt O15231: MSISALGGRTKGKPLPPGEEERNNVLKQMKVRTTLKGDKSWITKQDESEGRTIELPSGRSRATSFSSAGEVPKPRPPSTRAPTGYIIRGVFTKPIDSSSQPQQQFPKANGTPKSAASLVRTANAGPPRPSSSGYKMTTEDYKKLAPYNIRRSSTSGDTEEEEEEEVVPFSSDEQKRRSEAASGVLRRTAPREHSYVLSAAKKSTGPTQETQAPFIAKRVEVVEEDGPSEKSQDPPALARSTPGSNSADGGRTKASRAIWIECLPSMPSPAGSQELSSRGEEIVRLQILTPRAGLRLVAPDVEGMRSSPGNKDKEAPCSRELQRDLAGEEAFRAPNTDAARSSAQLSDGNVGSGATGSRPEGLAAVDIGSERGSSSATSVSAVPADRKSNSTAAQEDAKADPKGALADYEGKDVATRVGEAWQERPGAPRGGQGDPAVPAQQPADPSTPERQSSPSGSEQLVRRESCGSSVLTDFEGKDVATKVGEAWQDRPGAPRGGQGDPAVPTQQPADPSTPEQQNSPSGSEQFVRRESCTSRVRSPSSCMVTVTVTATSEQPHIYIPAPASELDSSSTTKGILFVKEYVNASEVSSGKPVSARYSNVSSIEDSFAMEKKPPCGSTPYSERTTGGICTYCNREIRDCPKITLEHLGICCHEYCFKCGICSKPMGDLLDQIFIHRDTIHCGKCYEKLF

B1: RRAS (protein, UniProt P10301 1-218)
chain: MSSGAASGTGRGRPRGGGPGPGDPPPSETHKLVVVGGGGVGKSALTIQFIQSYFVSDYDPTIEDSYTKICSVDGIPARLDILDTAGQEEFGAMREQYMRAGHGFLLVFAINDRQSFNEVGKLFTQILRVKDRDDFPVVLVGNKADLESQRQVPRSEASAFGASHHVAYFEASAKLRLNVDEAFEQLVRAVRKYQEQELPPSPPSAPRKKGGGCPCVLL
B2: SEPT8 (protein, UniProt Q92599 1-483)
chain: MAATDLERFSNAEPEPRSLSLGGHVGFDSLPDQLVSKSVTQGFSFNILCVGETGIGKSTLMNTLFNTTFETEEASHHEACVRLRPQTYDLQESNVQLKLTIVDAVGFGDQINKDESYRPIVDYIDAQFENYLQEELKIRRSLFDYHDTRIHVCLYFITPTGHSLKSLDLVTMKKLDSKVNIIPIIAKADTISKSELHKFKIKIMGELVSNGVQIYQFPTDDEAVAEINAVMNAHLPFAVVGSTEEVKVGNKLVRARQYPWGVVQVENENHCDFVKLREMLIRVNMEDLREQTHSRHYELYRRCKLEEMGFQDSDGDSQPFSLQETYEAKRKEFLSELQRKEEEMRQMFVNKVKETELELKEKERELHEKFEHLKRVHQEEKRKVEEKRRELEEETNAFNRRKAAVEALQSQALHATSQQPLRKDKDKKNRSDIGAHQPGMSLSSSKVMMTKASVEPLNCSSWWPAIQCCSCLVRDATWREGFL
B3: SEPT11 (protein, UniProt Q9NVA2 1-429)
chain: MAVAVGRPSNEELRNLSLSGHVGFDSLPDQLVNKSTSQGFCFNILCVGETGIGKSTLMDTLFNTKFESDPATHNEPGVRLKARSYELQESNVRLKLTIVDTVGFGDQINKDDSYKPIVEYIDAQFEAYLQEELKIKRSLFNYHDTRIHACLYFIAPTGHSLKSLDLVTMKKLDSKVNIIPIIAKADTIAKNELHKFKSKIMSELVSNGVQIYQFPTDEETVAEINATMSVHLPFAVVGSTEEVKIGNKMAKARQYPWGVVQVENENHCDFVKLREMLIRVNMEDLREQTHTRHYELYRRCKLEEMGFKDTDPDSKPFSLQETYEAKRNEFLGELQKKEEEMRQMFVMRVKEKEAELKEAEKELHEKFDLLKRTHQEEKKKVEDKKKELEEEVNNFQKKKAAAQLLQSQAQQSGAQQTKKDKDKKNASFT

target: T1, TAP-SEPT9_i1 (human) (UniProt Q9UHD8); assay: affinity purification with mass spectrometry
T1 sequence: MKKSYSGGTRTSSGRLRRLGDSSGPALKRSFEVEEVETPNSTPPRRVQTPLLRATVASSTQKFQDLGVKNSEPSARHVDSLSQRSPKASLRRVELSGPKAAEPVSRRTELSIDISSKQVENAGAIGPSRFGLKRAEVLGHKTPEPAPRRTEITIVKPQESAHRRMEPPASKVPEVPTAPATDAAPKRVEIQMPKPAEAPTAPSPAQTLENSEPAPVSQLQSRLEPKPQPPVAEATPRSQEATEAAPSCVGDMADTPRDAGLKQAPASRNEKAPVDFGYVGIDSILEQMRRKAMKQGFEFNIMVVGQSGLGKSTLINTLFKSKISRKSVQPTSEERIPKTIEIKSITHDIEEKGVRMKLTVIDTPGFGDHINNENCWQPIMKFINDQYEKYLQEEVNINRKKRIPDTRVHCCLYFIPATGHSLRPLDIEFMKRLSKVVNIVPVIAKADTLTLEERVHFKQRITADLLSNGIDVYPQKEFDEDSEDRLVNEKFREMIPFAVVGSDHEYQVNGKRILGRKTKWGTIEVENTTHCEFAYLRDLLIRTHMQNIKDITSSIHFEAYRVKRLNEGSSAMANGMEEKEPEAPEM

Q: With ACTN4 (from UniProt O43707 1-911) as the molecule, how does the binding read?
A: binds

Q: How did the binding turn out when CAV1 (from UniProt Q03135 1-178) was run?
A: binds

Q: EPLIN (from UniProt Q9UHB6 1-759) was tested. Which binding did it give?
A: binds

Q: FANCI (from UniProt Q9NVI1 1-1328) was tested. Which binding did it give?
A: binds

Q: Which binding does the source give for MYH10 (from UniProt P35580 1-1976) here?
A: binds

Q: With MYLK (from UniProt Q15746 1-1914) as the molecule, how does the binding read?
A: binds

Q: For MYO1B (from UniProt O43795 1-1136), which binding is on record?
A: binds

Q: Which binding does the source give for SNAP23 (from UniProt O00161 1-211) here?
A: binds

Q: For ZNF185 (from UniProt O15231 1-689), which binding is on record?
A: binds

target: T1, TAP-SEPT9_i1 (human); assay: affinity purification with mass spectrometry; remark: another data set of the same source

Q: For B1, which binding is on record?
A: binds

Q: How did the binding turn out when B2 was run?
A: binds

Q: Which binding does the source give for B3 here?
A: binds
